According to PubChem BioAssay AID1671190 (National Center for Advancing Translational Sciences (NCATS), 2021):
In all, about 580,000 compounds went through this assay and about 6,100 (1.1%) were called active. The inconclusive results got no clear call from the source; some entries with a clear call stand among them for comparison. Calls come from the whole dose curve; as a rule, active = well fitted inhibition curve with a large enough effect; inconclusive = small, poorly fitted or top-dose-only effect, or another doubt; inactive = no such curve, though single readings can be large or run the other way. A potency beside an inconclusive call is a rough fit, not a confirmed value.
% is set by controls: 0 for no effect and ±100 for the full control effect; potency is the fitted concentration of half-maximal effect.

The chains behind the UniProt entries cited, without tags or fusion partners. Where a name states a change or a piece, a line headed by the entry shows the natural chain unless it says otherwise.
UniProt P18054: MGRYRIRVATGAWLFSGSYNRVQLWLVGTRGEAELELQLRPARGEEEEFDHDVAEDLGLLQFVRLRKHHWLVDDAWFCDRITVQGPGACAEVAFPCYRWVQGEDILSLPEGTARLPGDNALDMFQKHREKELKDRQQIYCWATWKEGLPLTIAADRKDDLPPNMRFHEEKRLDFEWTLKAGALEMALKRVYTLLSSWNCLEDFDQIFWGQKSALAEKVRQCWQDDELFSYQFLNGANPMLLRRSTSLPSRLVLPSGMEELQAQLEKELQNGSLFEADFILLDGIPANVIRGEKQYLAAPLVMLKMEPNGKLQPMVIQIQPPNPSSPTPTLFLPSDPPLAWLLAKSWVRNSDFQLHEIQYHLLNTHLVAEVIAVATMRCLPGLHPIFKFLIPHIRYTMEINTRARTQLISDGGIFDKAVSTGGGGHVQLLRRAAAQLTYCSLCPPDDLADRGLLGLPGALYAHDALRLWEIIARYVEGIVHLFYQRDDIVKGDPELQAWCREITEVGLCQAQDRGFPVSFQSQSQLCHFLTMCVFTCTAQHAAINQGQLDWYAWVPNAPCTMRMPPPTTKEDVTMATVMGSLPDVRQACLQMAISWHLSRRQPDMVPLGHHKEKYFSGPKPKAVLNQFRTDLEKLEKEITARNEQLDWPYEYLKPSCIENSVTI

What follows are compounds tested against Polyunsaturated fatty acid lipoxygenase ALOX12 (Homo sapiens) (UniProt P18054) (assay: Primary qHTS assay for inhibitors of human arachidonate 12S-lipoxygenase (ALOX12): Round 2). Details: purified 12hLO, xylenol orange hydroperoxide absorbance; activity change, negative = inhibition: at 108 µM (top of the series) unless noted.
How it was run: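 Purified human 12hLO (150 nM final) in 25 mM Hepes, 0.01% Triton X-100, pH 7.0 was preincubated 15 min at room temperature with compound. Then 40 uM arachidonic acid was added, 30 min. Hydroperoxide was read by Fe-XO absorbance ratio 573/405 nm.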
With `CCOC(=O)c1c(NC(=S)SC)sc(C(=O)N2CCc3ccccc3C2)c1C` the Potency was inconclusive: 39.8 µM [inhibitor, partial curve, poor fit]. `S=c1nc(-c2ccccc2)n(CCN2CCOCC2)c2c1CCCC2` was tested, and the Potency was inconclusive: 15.8 µM [inhibitor, full curve, poor fit]. For `CC(=N\Nc1ccc(Cl)cc1)/C(=N/O)C(=O)Nc1ccccc1`, the Potency was inconclusive: 44.7 µM [inhibitor, partial curve, poor fit]. `O=C(NCCc1ccc(Cl)cc1)Nc1ccc(F)cc1` was tested, and the “activity change, negative = inhibition” value was inactive: -5.91%. In the case of `CN(CC(=O)Nc1cccc(F)c1)C(=O)c1cccc2ccccc12`, the Potency is reported as inconclusive: 158 µM [inhibitor, single point]. With `CC1(C)CC2CC(C)(CN2Cc2cccc([N+](=O)[O-])c2)C1` (stereo unspecified) the Potency was inconclusive: 39.8 µM [inhibitor, partial curve, poor fit]. In the case of `CC(C)NCCCCOc1ccc(Br)cc1Cl`, the Potency is reported as inconclusive: 12.6 µM [inhibitor, full curve]. For `Nc1nonc1C(=O)OCC(=O)N1CCCCC1`, the “activity change, negative = inhibition” value was inactive: -7.54%. In the case of `Cc1ccc(S(=O)(=O)SC/C=C/CSS(=O)(=O)c2ccc(C)cc2)cc1`, the Potency is reported as active: 0.708 µM. With `Cc1cccc(C2C3=C(Nc4[nH]n(-c5ccccc5)c(=O)c42)c2ccccc2C3=O)c1` (stereo unspecified) the Potency was active: 35.5 µM. `Cc1ccccc1CC(CC(=O)O)C(=O)O` (stereo unspecified) was tested, and the Potency was inconclusive: 35.5 µM [inhibitor, partial curve, poor fit]. With `Cc1oc2ccn(Cc3ccc(F)cc3)c(=O)c2c1C(=O)N1CCN(c2ccccn2)CC1` the “activity change, negative = inhibition” value was inactive: 16.5%. `CN(C)CCC1Sc2ccccc2Oc2ccccc21` (stereo unspecified) was tested, and the Potency was inconclusive: 3.55 µM [inhibitor, full curve, poor fit]. In the case of `CCSc1ccc(N)cc1`, the Potency is reported as inconclusive: 4.47 µM [inhibitor, full curve, poor fit]. With `COCCn1c(N(C)C)nc2c1c(=O)[nH]c(=O)n2C` the “activity change, negative = inhibition” value was inactive: -8.44%. In the case of `Cc1nn(C(C)C)c(C)c1N`, the Potency is reported as inconclusive: 39.8 µM [inhibitor, partial curve, poor fit]. In the case of `COc1ccc(Nc2nc(N)c(C(=O)c3cc(C)ccc3C)s2)cc1Cl`, the Potency is reported as inconclusive: 7.94 µM [inhibitor, full curve, poor fit]. `Cc1ccc(Cl)cc1NC(=O)CSc1ncnc2ccccc12` was tested, and the “activity change, negative = inhibition” value was inactive: -7.46%. With `CCC(N)CC12CC3CC(CC(C3)C1)C2` (stereo unspecified) the Potency was inconclusive: 79.4 µM [inhibitor, single point]. `CC#Cc1cc2c(cc1O)CCC1C2CCC2(C)C(O)CCC12` (stereo unspecified) was tested, and the Potency was active: 44.7 µM. For `Cc1ccc(OCC(=O)N/N=C/c2ccncc2)cc1C`, the Potency was inconclusive: 126 µM [inhibitor, single point].
